{"source": "patent US20250108100A1", "about": "“C-TERMINAL FRAGMENT OF APOLIPOPROTEIN E AND APPLICATION THEREOF IN INHIBITING y-SECRETASE ACTIVITY” (SYNPHATEC (SHANGHAI) BIOPHARMACEUTICAL TECHNOLOGY CO., LTD., priority 2022, published 2025)", "molecules": {"B1": {"name": "ApoE CT: C-terminal fragment of ApoE, positions 216-299 of SEQ ID NO: 12; SEQ ID NO: 33 (protein)", "chain": "ARMEEMGSRTRDRLDEVKEQVAEVRAKLEEQAQQIRLQAEAFQARLKSWFEPLVEDMQRQWAGLVEKVQAAVGTSAAPVPSDNH"}}, "key": {"HEK 293T cells": {"tested_on": "HEK 293T cells", "assay": "Immunofluorescence of ApoE from culture medium in HEK 293T cells", "assay_type": "cell-based, human", "conditions": "immunofluorescence after co-incubation"}, "primary cultured neurons": {"tested_on": "primary cultured neurons", "assay": "Immunofluorescence of ApoE from culture medium in primary cultured neurons", "assay_type": "cell-based, mouse", "conditions": "immunofluorescence after co-incubation"}}, "note": "Entries after “also recorded” stand apart in the source; their conditions may differ."}
{"molecule": "B1", "values": [{"measurement": "protein from culture medium detected inside cells", "setting": "HEK 293T cells", "value": "mainly adhered to the cell surface and hardly entered the cell; also recorded: largely could not be detected inside the cells; also recorded: mainly detected outside the cell membrane"}, {"measurement": "protein from culture medium detected inside neurons", "setting": "primary cultured neurons", "value": "mainly adhered to the cell surface and hardly entered the cell; also recorded: largely could not be detected inside the primary cultured neurons; also recorded: mainly detected outside the cell membrane"}]}
